Target: T1, human TNFα (human, UniProt P01375 77-233)
T1 construct: Coated on ELISA plates at 1 µg/ml; also called tumor necrosis factor alpha
Test: concentration-dependent ELISA; TNFα coated on plate; 2E11 titrated; anti-FLAG POD detection; sigmoidal fit
Experimental: Specific binding of mutant 2E11 to human TNFα was assayed by a concentration dependant ELISA. Increasing amounts of purified AFFILIN® ubiquitin variant 2E11 were applied to Nunc MEDISORP® plates coated with BSA as controls. Antigen coating with 50 μl (1 μg/ml) per well was performed at 4° C. overnight. After washing the plates with PBS, 0.1% TWEEN® 20, pH 7.4 (PBST), the wells were blocked using blocking solution (PBS pH 7.4; 3% BSA; 0.5% TWEEN® 20) at 37° C. for 2 h. Wells were washed again with PBST. Different concentrations of ubiquitin variant 2E11 in 50 μl were then incubated in the wells at 37° C. for 1 h. After washing the wells with PBST the anti-FLAG POD conjugate (Sigma) was applied in a dilution of 1:2000 in PBST. Substrate reaction and signal read out was done as described in the Hit-ELISA chapter.

Protein sequences, listed by entry. Tags and fused reporters are not part of them. Residues count along the entry.
UniProt P01375, 77-233 limits assumed: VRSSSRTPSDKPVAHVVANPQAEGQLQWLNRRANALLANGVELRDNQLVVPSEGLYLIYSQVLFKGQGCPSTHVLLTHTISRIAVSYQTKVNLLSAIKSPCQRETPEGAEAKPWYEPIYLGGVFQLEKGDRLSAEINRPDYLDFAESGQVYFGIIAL

B1: TNFα binding ubiquitin variant 2E11 (designed binder, not shown: small tags and cut ends)
chain: MQIFVKTLTGKTITLEVEPNDLIAPVKWKIIDEEGIPADQQRLIWAGKQLEDWAGLSDYNIQKESTLHLVLRLRGGDYKDDDDKGLEHHHHHH
notes: Human ubiquitin variant selected from the SPA10 helix library by ribosome display against human TNFα; It was produced in E. coli from pET20b(+), purified by Ni-NTA and SEC, and detected through its Flag tag; also called mutant 2E11; AFFILIN ubiquitin variant 2E11
- Kd: 400 nM
